According to publication PMC9936496, “Azobenzene-Based Amino Acids for the Photocontrol of Coiled-Coil Peptides” (Bioconjugate Chemistry, 2023):
“And” between values parts separate entries of the source, which are not always exact repeats. Equal values may be shown once. Starred links: 1 amine or outer side, 2 acyl side, 3 side chain; linkers in the order of their positions; H or OH if unused. Non-standard residues stand in square brackets, D forms with d. Residues, ends and D or L forms follow the SMILES beside them. X1 = O=C([C@@H](N[*:1])c1ccc(N=Nc2ccccc2)cc1)[*:2]

System: E3GY
Experiment: CD thermal unfolding curves fitted to a dimeric coiled-coil binding model
Conditions: coiled coil with E3GY; for ΔH° (enthalpy where ΔG = 0 and Ku = Kf = 1): CD θ222nm melting 5-90 °C, four concentrations, Fitdis fit
Experimental: CD melting curves measured at different concentrations were fitted to a coiled-coil binding model (Figures S2 and S3).[39]
CD spectra were recorded on a Jasco J-815 CD spectrometer fitted with a Peltier temperature controller. Spectra were recorded in a 2 mm quartz cuvette at 20 °C using either PBS or low-salt buffer (2 mM NaCl, 10 mM phosphate) at pH 7.4. Spectra were recorded between 190 and 280 nm with 1 nm intervals at a scan rate of 100 nm/min with five subsequent spectra averaged to minimize noise. […] Thermal melting curves were generated by recording θ222nm between 5 and 90 °C at a speed of 1 °C/min. If irradiated samples were used, samples were reilluminated every 30 min. Melting curves were measured at four different concentrations and fitted using the Fitdis software package.[39]

[1] = 340 nm irradiated state (predominantly cis)
[2] = dark state (predominantly trans)

CC[C@H](C)[C@H](NC(=O)[C@H](CCCCN)NC(C)=O)C(=O)N[C@@H](C)C(=O)N[C@@H](C)C(=O)N[C@@H](CC(C)C)C(=O)N[C@@H](CCCCN)C(=O)N[C@@H](CCC(=O)O)C(=O)N[C@@H](CCCCN)C(=O)N[C@H](C(=O)N[C@@H](C)C(=O)N[C@@H](C)C(=O)N[C@@H](CC(C)C)C(=O)N[C@@H](CCCCN)C(=O)N[C@@H](CCC(=O)O)C(=O)N[C@@H](CCCCN)C(=O)N[C@H](C(=O)N[C@@H](C)C(=O)N[C@@H](C)C(=O)N[C@@H](CC(C)C)C(=O)N[C@@H](CCCCN)C(=O)N[C@@H](CCC(=O)O)C(N)=O)[C@@H](C)CC)c1ccc(N=Nc2ccccc2)cc1 [K3-APgly] (Ac-KIAALKEK[X1]AALKEKIAALKE-NH2)
T° (temperature where ΔG = 0 and Ku = Kf = 1) [1]: 110.5 ± 1.9 °C and 110.5 °C
ΔCp (change in heat capacity upon unfolding) [1]: 2.15 ± 0.14 kJ mol^–1k^–1 and 2.15 kJ mol^–1k^–1
ΔH° (enthalpy where ΔG = 0 and Ku = Kf = 1) [1]: 236 ± 7.1 kJ mol^–1 and 236 kJ mol^–1
T° (temperature where ΔG = 0 and Ku = Kf = 1) [2]: 113 ± 1.2 °C and 113.0 °C
ΔCp (change in heat capacity upon unfolding) [2]: 2.8 ± 0.13 kJ mol^–1k^–1 and 2.80 kJ mol^–1k^–1
ΔH° (enthalpy where ΔG = 0 and Ku = Kf = 1) [2]: 285.2 ± 6.5 kJ mol^–1 and 285.2 kJ mol^–1
